The test concerns the target DYNC1I1-GFP (cytoplasmic dynein intermediate chain DYNC1I1, GFP-tagged). Put plainly: co-IP; co-immunoprecipitation of DYNC1I1-GFP and NDE1-MYC in the presence or absence of co-transfected MCRS1-FLAG; resin for this experiment not told (methods name anti-FLAG M2 affinity gel or GFP-Trap).

The source of these data is paper PMC4893664.

These are yes or no findings as the source states them, for the method shown. In cells and extracts the contact can be indirect. Binding calls can cover weak binding; strength is not graded here. Tags and fused reporters may be left off the sequences shown.

B1: NDE1-MYC (protein, UniProt Q9NXR1 1-335)
chain: MEDSGKTFSSEEEEANYWKDLAMTYKQRAENTQEELREFQEGSREYEAELETQLQQIETRNRDLLSENNRLRMELETIKEKFEVQHSEGYRQISALEDDLAQTKAIKDQLQKYIRELEQANDDLERAKRATIMSLEDFEQRLNQAIERNAFLESELDEKENLLESVQRLKDEARDLRQELAVQQKQEKPRTPMPSSVEAERTDTAVQATGSVPSTPIAHRGPSSSLNTPGSFRRGLDDSTGGTPLTPAARISALNIVGDLLRKVGALESKLASCRNLVYDQSPNRTGGPASGRSSKNRDGGERRPSSTSVPLGDKGLDTSCRWLSKSTTRSSSSC
In the case of B1, the binding result is “binds”.
